Assay [1] deals with E. coli ColE-7 (E. coli) (UniProt Q47112). Put plainly: SPR Biacore T200, 37 C, single cycle kinetics.
Assay [2] addresses E. coli IM-7, singly biotinylated (E. coli) (UniProt Q03708). Put plainly: SPR (Biacore T200), 37 C, single cycle kinetics; […].

Sequences of proteins named here, by UniProt entry; tags and fusion partners are left off. Residues count along the entry.
UniProt Q47112, residues 444-576: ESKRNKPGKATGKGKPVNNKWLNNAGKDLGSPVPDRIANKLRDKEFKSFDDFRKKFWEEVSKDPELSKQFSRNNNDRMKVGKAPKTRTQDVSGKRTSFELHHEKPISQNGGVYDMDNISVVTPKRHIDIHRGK
UniProt Q03708: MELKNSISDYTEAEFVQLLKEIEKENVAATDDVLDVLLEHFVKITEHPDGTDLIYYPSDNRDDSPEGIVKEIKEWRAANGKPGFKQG

Results are given in words; binding and its absence hold for the method and conditions named. Some binding calls cover weakened binding; strength is not graded here.

In the case of “E. coli IM-7, singly biotinylated (from UniProt Q03708 1-87)”, the binding result in assay [1] was “binds”.
For the substance “E. coli ColE-7 (from UniProt Q47112 444-576)”, the binding result in assay [2] is “binds”.
